## Primary screen of a compound library

By UniProt entry, the sequences of proteins in these tests, tags left out.
UniProt E9BF75, entry or part of it: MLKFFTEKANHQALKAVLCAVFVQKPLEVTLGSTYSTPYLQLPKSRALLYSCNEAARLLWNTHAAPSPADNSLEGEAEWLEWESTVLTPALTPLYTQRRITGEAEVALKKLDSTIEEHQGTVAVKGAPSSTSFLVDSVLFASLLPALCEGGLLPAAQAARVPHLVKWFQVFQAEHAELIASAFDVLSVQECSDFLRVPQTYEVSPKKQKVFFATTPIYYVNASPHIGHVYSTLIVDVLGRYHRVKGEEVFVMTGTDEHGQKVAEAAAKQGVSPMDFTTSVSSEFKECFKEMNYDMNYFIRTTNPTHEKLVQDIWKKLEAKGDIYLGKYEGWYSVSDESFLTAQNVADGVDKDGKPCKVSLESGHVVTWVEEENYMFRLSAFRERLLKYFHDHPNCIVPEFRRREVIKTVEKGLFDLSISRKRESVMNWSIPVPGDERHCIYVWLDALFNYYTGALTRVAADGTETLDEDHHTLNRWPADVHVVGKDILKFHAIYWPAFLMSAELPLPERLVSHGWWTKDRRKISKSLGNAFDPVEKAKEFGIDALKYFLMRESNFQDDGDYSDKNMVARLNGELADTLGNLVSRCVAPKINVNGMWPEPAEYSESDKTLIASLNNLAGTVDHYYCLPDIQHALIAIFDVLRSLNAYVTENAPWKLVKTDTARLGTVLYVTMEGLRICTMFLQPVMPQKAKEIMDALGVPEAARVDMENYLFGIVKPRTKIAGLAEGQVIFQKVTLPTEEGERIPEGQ

Data taken from ChEMBL document CHEMBL3988442, “University of Dundee, Small-Polar-MMV Screening Library” (2021).

A: 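Methionyl-tRNA synthetase (putative), Leishmania donovani (UniProt E9BF75). Primary screen of methionyl-tRNA synthetase; the read-out is not stated. The test concentration is not given. Values are per cent inhibition. Size under these conditions: about 68,000 compounds, about 24 of them at 50% or above in at least one test.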
B: 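Assay on Mycobacterium tuberculosis, filed only as a heat shock assay from Cornell; the read-out is not stated. The concentration is filed as 10 mM, unlikely as a test dose, so the dose is not known. Direction is inferred from retests: higher values go with stronger inhibition. Of about 69,000 compounds tested this way, about 930 (1.4%) reached 50% or more in at least one test.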

All values are in %. The controls that fix the scale are not given in the record; negative values are as filed. This is an unselected part of the compounds tested. A dash means the value is not listed here; it may have been measured.

SMILES | A | B
COC(=O)c1ccc(CNC2CC(=O)N(Cc3cccc(F)c3)C2)cc1 (centres unmarked) | 5.222 | -11.75
Cc1ccc(CNC(=O)CN2CCCC(Cn3cncn3)C2)s1 (centres unmarked) | 13.29 | 8.335
CCc1nnc2n1CCN(C(=O)c1cc(C)n(-c3ccccc3)c1C)C2 | 16.57 | -2.681
CC(C)(C)c1nc(NS(=O)(=O)c2ccc(F)cc2)no1 | 8.732 | 8.534
[H][C@@]12CNC[C@]1([H])[C@H]2CN1CCC(c2nnc(Cn3cncn3)n2CC)CC1 | - | -28.34
CCn1nc(CNC(=O)C2CCCN(CC(N)=O)C2)c2ccccc21 (centres unmarked) | 5.16 | 3.795
Cn1cccc1CN1CCC2(CCCN(C(=O)c3cnccn3)C2)C1.O=C(O)C(F)(F)F (centres unmarked) | - | -14.5
Cc1nn(C)c(C)c1C(=O)NCc1cccnc1OC1CCCC1 | 10.8 | 2.769
OCCNc1nccc(-c2cn3nccc3nc2C2CCCCC2)n1 | 8.981 | -5.664
Cc1ccc(C(=O)NCCCC2(C3OCCO3)CCOCC2)cc1C | 11.59 | 16.41
CCc1cnccc1C(=O)NC1CCN(Cc2ccccc2F)CC1 | 18.32 | -2.451
c1cc(C2CC2)n2cnc(C3CN(Cc4nccs4)CCO3)c2c1 (centres unmarked) | 15.58 | -
CN(Cc1ccccc1)C(=O)CN1CCCC1c1cnn(C)c1 (centres unmarked) | 9.699 | 10.92
CN(Cc1cncnc1)[C@H]1CN(CC2CC2)[C@@H]2CCCO[C@@H]21 | 20.5 | -
CN(C)[C@@H]1CCN(C(=O)Cc2ccc(F)cc2)[C@H]1Cc1ccncc1 | 3.483 | -
CCn1cc(S(=O)(=O)Nc2nc3c(s2)CC(C)CC3)cn1 (centres unmarked) | -8.309 | -11.73
CN(C)Cc1cc(C2CCN(C(=O)C3CC34CCC4)CC2)nn1C (centres unmarked) | 12.26 | -
CC[C@H](C)[C@@H](CO)NC(C)Cc1ccc(F)cc1 (some centres unmarked) | 18.38 | 8.22
CCc1ccc(CN2CCc3ncnc(-c4cccnc4)c3CC2)o1.O=C(O)C(F)(F)F.O=C(O)C(F)(F)F | - | -16.65
COc1cnc(CN2CCN(CC(C)C)C(=O)C2C)cc1O (centres unmarked) | 17.36 | -23.04
Cn1ncc2c1NC(=O)CSC2c1ccccc1Cl (centres unmarked) | 0 | -7.81
CC(C)c1cc(COCCCC(=O)O)no1 | 11.08 | 9.129
Cc1cc2ccccc2n1CCC(=O)NCCN(C)S(C)(=O)=O | 19.55 | 13.28
COc1ccc(CN2CCn3c(C(=O)N(C)C)cnc3C2)cc1 | 9.95 | -
Cc1ccccc1CSc1ncc(Br)c(C(=O)O)n1 | 4.065 | -3.82
CC(=O)N1CCC(n2ccc(-c3cnc(N4CCOCC4)nc3)n2)CC1 | 14.32 | -18.1
Cc1noc(C)c1CCC(=O)N[C@@H]1CC[C@@H](Oc2cccnc2)[C@@H]1O | 15.22 | 0.2968
CN1CCC(NC(=O)CC2CN(Cc3ccccc3)CCO2)CC1 (centres unmarked) | 14.99 | -10.09
COc1ccc(CNCC2CNc3ccnn3C2)cn1 (centres unmarked) | 15.67 | -13.68
Cc1oc(C(=O)O)cc1S(=O)(=O)Nc1cc(Br)ccc1F | 8.262 | -10.76
CC(C)n1nc(Cn2cccc2)c2c1CN(C1CCOCC1)C2 | 21.17 | -
CC(C)c1ccc(CN2C(=O)C3(CCNCC3)Nc3ccccc32)cc1 | 9.375 | 76.57
O=C(Nc1ccc(CCN2CCSCC2)cc1)NC1CC1 | 13.17 | -21.42
CS(=O)(=O)NC1CCN(C(=O)NCc2cc[nH]n2)CC1 | 13.69 | -9.582
O=c1c2sccc2nc2n1CCN(Cc1ccc(F)c(F)c1)CC2 | 20.06 | -
CS(=O)(=O)CCOCCNc1ccc(C(F)(F)F)cc1C#N | 9.507 | -1.449
Cc1ncsc1C(=O)NC1CCN(CCC#N)CC1 | 6.627 | -34.26
CN(C(=O)NCc1ccncc1)C1CCN(c2ccccc2)C1=O (centres unmarked) | 10.2 | 0.9174
Cc1cnc(CN(Cc2ccc(Cl)s2)C2CCN(C)C2)o1 (centres unmarked) | 14.08 | -5.036
COCCCN(C(=O)c1ccc(-n2ccnc2)cc1)C1CCN(C)CC1 | -1.375 | -20.53
O=C1NC2(CCCN(C(=O)CCn3cncn3)C2)Oc2ccccc21 (centres unmarked) | 14.6 | 2.524
CNC(=O)[C@@H]1[C@H]2CN(Cc3ccccn3)CCN2C[C@H]1c1ccccc1 | 7.945 | -
Cc1nc(COCc2cnc3n2CCN(C(=O)C2CC2)C3C)cs1 (centres unmarked) | 9.446 | -56.85
CN1CCOC(CNCc2csc(C3CCCC3)n2)C1 (centres unmarked) | -14.2 | 51.17